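Malaria parasite (P. falciparum) lines kept in red blood cells; parasite DNA is measured by SYBR Green fluorescence after lysis, 72 h after compound addition.
Each compound was titrated across a series from about 0.000037 to 29 µM.
The number is the fitted AC50, the concentration giving a half-maximal change in signal; a lower value means higher potency, whether the curve shows a decrease or an increase.
Calls follow the curve class and fit quality: every row here is inconclusive, covering signal-raising curves and weak, poorly fitted, partial or highest-dose-only inhibition curves.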

Values are in nM.
All entries here are filed as inconclusive.
These entries are mostly ones the record files as inconclusive; other results of the assay are not listed here.
A potency from a partial, single-point or poor curve is only a rough figure.

SMILES,condition,Potency (nM),curve as filed
CCC1OC(=O)C[C@H](O)C(C)[C@@H](O[C@@H]2OC(C)C(O)C(N(C)C)C2O)C(CCN2CC(C)CC(C)C2)CC(C)C(=O)/C=C/C(C)=C\[C@@H]1COC1OC(C)C(O)C(OC)C1OC (stereo not given in full),CP215,8492,"inhibitor, partial curve"
CCC1OC(=O)C[C@H](O)C(C)[C@@H](O[C@@H]2OC(C)C(O)C(N(C)C)C2O)C(CCN2CC(C)CC(C)C2)CC(C)C(=O)/C=C/C(C)=C\[C@@H]1COC1OC(C)C(O)C(OC)C1OC (stereo not given in full),DIV17,10690,"inhibitor, partial curve"
CCC1OC(=O)C[C@H](O)C(C)[C@@H](O[C@@H]2OC(C)C(O)C(N(C)C)C2O)C(CCN2CC(C)CC(C)C2)CC(C)C(=O)/C=C/C(C)=C\[C@@H]1COC1OC(C)C(O)C(OC)C1OC (stereo not given in full),AA1029,5012,"inhibitor, partial curve"
CCC1OC(=O)C[C@H](O)C(C)[C@@H](O[C@@H]2OC(C)C(O)C(N(C)C)C2O)C(CCN2CC(C)CC(C)C2)CC(C)C(=O)/C=C/C(C)=C\[C@@H]1COC1OC(C)C(O)C(OC)C1OC (stereo not given in full),CP265,12589,"inhibitor, single point"
CCC1OC(=O)C[C@H](O)C(C)[C@@H](O[C@@H]2OC(C)C(O)C(N(C)C)C2O)C(CCN2CC(C)CC(C)C2)CC(C)C(=O)/C=C/C(C)=C\[C@@H]1COC1OC(C)C(O)C(OC)C1OC (stereo not given in full),PAD,11220,"inhibitor, single point"
CCC1OC(=O)C[C@H](O)C(C)[C@@H](O[C@@H]2OC(C)C(O)C(N(C)C)C2O)C(CCN2CC(C)CC(C)C2)CC(C)C(=O)/C=C/C(C)=C\[C@@H]1COC1OC(C)C(O)C(OC)C1OC (stereo not given in full),SC27B,11220,"inhibitor, single point"
CCC1OC(=O)C[C@H](O)C(C)[C@@H](O[C@@H]2OC(C)C(O)C(N(C)C)C2O)C(CCN2CC(C)CC(C)C2)CC(C)C(=O)/C=C/C(C)=C\[C@@H]1COC1OC(C)C(O)C(OC)C1OC (stereo not given in full),PC26,11995,"inhibitor, single point"
CCC1OC(=O)C[C@H](O)C(C)[C@@H](O[C@@H]2OC(C)C(O)C(N(C)C)C2O)C(CCN2CC(C)CC(C)C2)CC(C)C(=O)/C=C/C(C)=C\[C@@H]1COC1OC(C)C(O)C(OC)C1OC (stereo not given in full),CP203,9528,"inhibitor, partial curve"
CCC1OC(=O)C[C@H](O)C(C)[C@@H](O[C@@H]2OC(C)C(O)C(N(C)C)C2O)C(CCN2CC(C)CC(C)C2)CC(C)C(=O)/C=C/C(C)=C\[C@@H]1COC1OC(C)C(O)C(OC)C1OC (stereo not given in full),7G8,7080,"inhibitor, partial curve"
CCC1OC(=O)C[C@H](O)C(C)[C@@H](O[C@@H]2OC(C)C(O)C(N(C)C)C2O)C(CCN2CC(C)CC(C)C2)CC(C)C(=O)/C=C/C(C)=C\[C@@H]1COC1OC(C)C(O)C(OC)C1OC (stereo not given in full),CP247,11220,"inhibitor, single point"
CCC1OC(=O)C[C@H](O)C(C)[C@@H](O[C@@H]2OC(C)C(O)C(N(C)C)C2O)C(CCN2CC(C)CC(C)C2)CC(C)C(=O)/C=C/C(C)=C\[C@@H]1COC1OC(C)C(O)C(OC)C1OC (stereo not given in full),CP217,8912,"inhibitor, partial curve"
CCC1OC(=O)C[C@H](O)C(C)[C@@H](O[C@@H]2OC(C)C(O)C(N(C)C)C2O)C(CCN2CC(C)CC(C)C2)CC(C)C(=O)/C=C/C(C)=C\[C@@H]1COC1OC(C)C(O)C(OC)C1OC (stereo not given in full),PC49,17782,"inhibitor, single point"
CCC1OC(=O)C[C@H](O)C(C)[C@@H](O[C@@H]2OC(C)C(O)C(N(C)C)C2O)C(CCN2CC(C)CC(C)C2)CC(C)C(=O)/C=C/C(C)=C\[C@@H]1COC1OC(C)C(O)C(OC)C1OC (stereo not given in full),CP268,15101,"inhibitor, single point"
CCC1OC(=O)C[C@H](O)C(C)[C@@H](O[C@@H]2OC(C)C(O)C(N(C)C)C2O)C(CCN2CC(C)CC(C)C2)CC(C)C(=O)/C=C/C(C)=C\[C@@H]1COC1OC(C)C(O)C(OC)C1OC (stereo not given in full),AS120,8912,"inhibitor, partial curve"
CCC1OC(=O)C[C@H](O)C(C)[C@@H](O[C@@H]2OC(C)C(O)C(N(C)C)C2O)C(CCN2CC(C)CC(C)C2)CC(C)C(=O)/C=C/C(C)=C\[C@@H]1COC1OC(C)C(O)C(OC)C1OC (stereo not given in full),DIV14,9528,"inhibitor, partial curve"
CCC1OC(=O)C[C@H](O)C(C)[C@@H](O[C@@H]2OC(C)C(O)C(N(C)C)C2O)C(CCN2CC(C)CC(C)C2)CC(C)C(=O)/C=C/C(C)=C\[C@@H]1COC1OC(C)C(O)C(OC)C1OC (stereo not given in full),CP211,16944,"inhibitor, single point"
CCC1OC(=O)C[C@H](O)C(C)[C@@H](O[C@@H]2OC(C)C(O)C(N(C)C)C2O)C(CCN2CC(C)CC(C)C2)CC(C)C(=O)/C=C/C(C)=C\[C@@H]1COC1OC(C)C(O)C(OC)C1OC (stereo not given in full),ATS95,5012,"inhibitor, partial curve"
CCC1OC(=O)C[C@H](O)C(C)[C@@H](O[C@@H]2OC(C)C(O)C(N(C)C)C2O)C(CCN2CC(C)CC(C)C2)CC(C)C(=O)/C=C/C(C)=C\[C@@H]1COC1OC(C)C(O)C(OC)C1OC (stereo not given in full),CP305,15101,"inhibitor, single point"
CCC1OC(=O)C[C@H](O)C(C)[C@@H](O[C@@H]2OC(C)C(O)C(N(C)C)C2O)C(CCN2CC(C)CC(C)C2)CC(C)C(=O)/C=C/C(C)=C\[C@@H]1COC1OC(C)C(O)C(OC)C1OC (stereo not given in full),P93_24,3981,"inhibitor, partial curve"
CCC1OC(=O)C[C@H](O)C(C)[C@@H](O[C@@H]2OC(C)C(O)C(N(C)C)C2O)C(CCN2CC(C)CC(C)C2)CC(C)C(=O)/C=C/C(C)=C\[C@@H]1COC1OC(C)C(O)C(OC)C1OC (stereo not given in full),DIV30,13459,"inhibitor, single point"
CCC1OC(=O)C[C@H](O)C(C)[C@@H](O[C@@H]2OC(C)C(O)C(N(C)C)C2O)C(CCN2CC(C)CC(C)C2)CC(C)C(=O)/C=C/C(C)=C\[C@@H]1COC1OC(C)C(O)C(OC)C1OC (stereo not given in full),TAB165,6310,"inhibitor, partial curve"
CN1[C@@H]2CC[C@H]1CC(OC1c3ccccc3CCc3ccccc31)C2 (stereo not given in full),TAB109,10000,"inhibitor, single point"
CN1[C@@H]2CC[C@H]1CC(OC1c3ccccc3CCc3ccccc31)C2 (stereo not given in full),N140,6310,"inhibitor, single point"
CN1[C@@H]2CC[C@H]1CC(OC1c3ccccc3CCc3ccccc31)C2 (stereo not given in full),CP297,9074,"inhibitor, partial curve, poor fit"
CN1[C@@H]2CC[C@H]1CC(OC1c3ccccc3CCc3ccccc31)C2 (stereo not given in full),Dd2,3548,"inhibitor, partial curve"

From PubChem BioAssay record AID504749 (NCATS, 2011).